# Where a sequence shows no end group, the ends are not given.
# Experiment: peptide synthesis
# Details: whole synthesis
row,Sequence,purity (crude or final not stated) [%]
1,APDPFKQGVDTCGK,90
2,CAFKQGVDTCGK,30
3,GCAPDPFKQGVDTCGK,80
4,GCASLQGMDTCGK,60

# Reference: patent publication US20060234229 (published 2006)
